The other results are listed elsewhere or left out. These are raw signals, not scaled to a control.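 In the initial screen, polymyxin B was used at a concentration that permeabilizes Salmonella's outer membrane but not its inner membrane. Maximum growth was set by DMSO wells with or without polymyxin B. Since plates varied, data were ranked per plate, and compounds giving the lowest OD600 advanced as hits.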
System: Salmonella enterica serovar Typhimurium SL1344
Test: bacterial growth OD600 after 18 h with compound and polymyxin B; higher = more bacterial growth (less inhibition)
Details: 50 µM, Mueller-Hinton broth

| SMILES | bacterial growth OD600 (polymyxin B 0.75 µg/mL) | bacterial growth OD600 (polymyxin B 1 µg/mL) |
| --- | --- | --- |
| COCCCN1C(=O)CC(CC(=O)NCC2(c3ccccc3)CC2(C)C)(c2ccccc2)C1=O (configuration not stated) | 0.754 |  |
| COc1ccc(F)c(CC2(CCC(=O)N(C)Cc3ccc4nccnc4c3)CCC(=O)N2)c1 (configuration not stated) | 0.908 |  |
| Oc1ccc(CN2CC[C@@H](N3CCN(CCc4ccccc4)CC3)[C@H](O)C2)cc1Cl |  | 0.86 |
| Cc1ccc2c(c1)CN(CCNC(=O)CCCc1cccs1)CC(C)O2 (configuration not stated) | 0.861 |  |
| O=C(Cc1ccncc1)NCc1cccnc1Oc1ccccc1 |  | 0.913 |
| CN(Cc1ccc2nccnc2c1)C(=O)CC1(c2ccccc2)CC(=O)N(CCc2ccccn2)C1=O (configuration not stated) | 0.718 |  |
| CC(C)=CC(=O)N1CCCC(N2CCN(c3cccc(Cl)c3)CC2)C1 (configuration not stated) |  | 0.963 |
| O=C(Nc1ccnn1C1CCN(Cc2cccc3nonc23)CC1)c1ccccc1 |  | 0.941 |
| CCn1ccnc1CN1CCc2onc(-c3ccc4c(c3)OCO4)c2C1 | 0.813 |  |
| Cc1nonc1CN(C)c1ccc(-c2nc(COc3ccccc3)no2)cn1 |  | 0.645 |
| Cc1ccc(C(=O)NCc2cccnc2N2CCOCC2)s1 | 0.776 |  |
| CN(CCc1ccccn1)c1ncccc1CNC(=O)c1cc2sccc2[nH]1 |  | 0.837 |
| C[C@@H]1CN(Cc2c(C(=O)N3CCN(C4CCCCC4)CC3)nc3ccccn23)C[C@H](C)O1 | 0.817 |  |
| O=C(Cn1cc(NC(=O)CCOc2ccccc2)cn1)NCCCn1cccn1 | 0.99 |  |
| CCC(=O)N[C@@H]1c2ccccc2C2(CCN(C(=O)c3cccs3)CC2)[C@H]1OCc1cccnc1 | 0.779 |  |
| Cc1c(CC(=O)NC2CC2)c2c(n1CCc1ccccc1)CCCC2=O | 0.963 |  |

By substructure, the compounds so far containing a carbonyl joined to an NH by a bond outside any ring (nine)

| SMILES | bacterial growth OD600 (polymyxin B 0.75 µg/mL) | bacterial growth OD600 (polymyxin B 1 µg/mL) |
| --- | --- | --- |
| COCCCN1C(=O)CC(CC(=O)NCC2(c3ccccc3)CC2(C)C)(c2ccccc2)C1=O (configuration not stated) | 0.754 |  |
| Cc1ccc2c(c1)CN(CCNC(=O)CCCc1cccs1)CC(C)O2 (configuration not stated) | 0.861 |  |
| O=C(Cc1ccncc1)NCc1cccnc1Oc1ccccc1 |  | 0.913 |
| O=C(Nc1ccnn1C1CCN(Cc2cccc3nonc23)CC1)c1ccccc1 |  | 0.941 |
| Cc1ccc(C(=O)NCc2cccnc2N2CCOCC2)s1 | 0.776 |  |
| CN(CCc1ccccn1)c1ncccc1CNC(=O)c1cc2sccc2[nH]1 |  | 0.837 |
| O=C(Cn1cc(NC(=O)CCOc2ccccc2)cn1)NCCCn1cccn1 | 0.99 |  |
| CCC(=O)N[C@@H]1c2ccccc2C2(CCN(C(=O)c3cccs3)CC2)[C@H]1OCc1cccnc1 | 0.779 |  |
| Cc1c(CC(=O)NC2CC2)c2c(n1CCc1ccccc1)CCCC2=O | 0.963 |  |

Continued:

| SMILES | bacterial growth OD600 (polymyxin B 0.75 µg/mL) | bacterial growth OD600 (polymyxin B 1 µg/mL) |
| --- | --- | --- |
| COc1ccc(-c2nn(-c3ccccc3)cc2CN2CCC(C(N)=O)CC2)c(F)c1 |  | 0.874 |
| Cc1nc(N2CCCCCCC2)ncc1C(C)NC(=O)C1CCOCC1 (configuration not stated) |  | 1.09 |
| CN(Cc1nccs1)C(=O)C1CCC(=O)N(CCCc2ccccc2)C1 (configuration not stated) |  | 0.89 |
| CC(C)NC(=O)c1ccc(OC2CCN(S(C)(=O)=O)CC2)c(Cl)c1 | 1.01 |  |
| O=C(c1csc2nc(-c3ccccc3Cl)cn12)N1CCCC1 | 0.01 |  |
| c1ccc(-c2nc3c(c(N4CCN(C5CCCC5)CC4)n2)CCC3)cc1 |  | 0.869 |
| O=C(CCCn1nnnc1CN1CCOCC1)N1CCCN(C2CCCCC2)CC1 |  | 1 |
| Cc1cccc(C)c1Oc1ncccc1CNC(=O)CC1CN(C)CCN1C (configuration not stated) |  | 1.29 |
| Cc1nc(C)c(C(=O)N2CCc3[nH]nc(-c4ccccc4)c3C2)s1 | 0.878 |  |
| CCOC(=O)N1CCN(C(=O)c2ccc(N3CCC(NCc4ccc(C)c(F)c4)CC3)cc2)CC1 | 0.833 |  |
| Cc1ccc(CN(C)C(=O)CC2(c3ccccc3)CC(=O)N(Cc3cccnc3)C2=O)cc1 (configuration not stated) | 0.362 |  |
| Cc1ccsc1CN(C)C(=O)CC(c1ccccc1)c1ccc2c(c1)OCO2 (configuration not stated) |  | 0.401 |
| COCC1CCN(C(=O)CC(c2cccc(O)c2)c2ccccc2Cl)CC1 (configuration not stated) |  | 0.561 |
| CN(C)S(=O)(=O)NCC1CCCN(Cc2ccc(O)c(Cl)c2)C1 (configuration not stated) | 0.787 |  |
| CCS(=O)(=O)Nc1cc(C(=O)NCCCn2cccn2)c2c(c1)nc(-c1ccccc1)n2C | 0.854 |  |
| O=C(c1ccc(N2CCCCC2)cc1)N1CCOc2ccc(CN3CCCCC3CO)cc2C1 (configuration not stated) | 0.86 |  |

From the supplement of paper PMC12889115
